In article doi:10.1101/2025.06.02.657351 one finds binding data, which are given here for 3 molecules.

No constants are given. Whether binding was seen depends on the method and setting. Binding seen in cells or lysates may run through a third protein. Some binding calls cover weakened binding; strength is not graded here. For some of these results: Tags and fused reporters may be left off the sequences shown.

Test [1] deals with T1, BAK (human (endogenous in HeLa)) (UniProt Q16611).
T1 sequence: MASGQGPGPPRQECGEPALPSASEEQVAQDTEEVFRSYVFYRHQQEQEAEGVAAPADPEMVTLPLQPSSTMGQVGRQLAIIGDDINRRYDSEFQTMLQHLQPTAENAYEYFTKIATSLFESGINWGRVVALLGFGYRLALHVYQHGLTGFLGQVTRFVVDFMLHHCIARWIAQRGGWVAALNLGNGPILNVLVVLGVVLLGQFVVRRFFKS
In words: co-IP.

Test [2] deals with T1, BAK (human (endogenous in HeLa)). The test is described as follows: proximity ligation.

B1: OmpA from Chlamydia trachomatis (Ctr), expressed in HeLa cells (HeLa OmpA expressing cells of Fig. 2A) (protein, UniProt P06597 23-394)
chain: LPVGNPAEPSLMIDGILWEGFGGDPCDPCTTWCDAISMRMGYYGDFVFDRVLQTDVNKEFQMGAKPTTATGNAAAPSTCTARENPAYGRHMQDAEMFTNAAYMALNIWDRFDVFCTLGATSGYLKGNSASFNLVGLFGDNENHATVSDSKLVPNMSLDQSVVELYTDTTFAWSAGARAALWECGCATLGASFQYAQSKPKVEELNVLCNAAEFTINKPKGYVGQEFPLDLKAGTDGVTGTKDASIDYHEWQASLALSYRLNMFTPYIGVKWSRASFDADTIRIAQPKSATTVFDVTTLNPTIAGAGDVKASAEGQLGDTMQIVSLQLNKMKSRKSCGIAVGTTIVDADKYAVTVETRLIDERAAHVNAQFRF
In the case of B1, the binding result in test [1] was “binds”.

B2: OmpA from Chlamydia trachomatis, untagged, tetracycline/AHT-inducible in HeLa cells (Tet-OmpA HeLa cells) (protein, UniProt P06597 23-394)
chain: LPVGNPAEPSLMIDGILWEGFGGDPCDPCTTWCDAISMRMGYYGDFVFDRVLQTDVNKEFQMGAKPTTATGNAAAPSTCTARENPAYGRHMQDAEMFTNAAYMALNIWDRFDVFCTLGATSGYLKGNSASFNLVGLFGDNENHATVSDSKLVPNMSLDQSVVELYTDTTFAWSAGARAALWECGCATLGASFQYAQSKPKVEELNVLCNAAEFTINKPKGYVGQEFPLDLKAGTDGVTGTKDASIDYHEWQASLALSYRLNMFTPYIGVKWSRASFDADTIRIAQPKSATTVFDVTTLNPTIAGAGDVKASAEGQLGDTMQIVSLQLNKMKSRKSCGIAVGTTIVDADKYAVTVETRLIDERAAHVNAQFRF
Consider B2, for which the binding entry in test [2] is recorded as “binds”.

B3: OmpA of Chlamydia trachomatis serovar L2, made by the bacteria during infection of HeLa cells (protein, UniProt P06597 23-394)
chain: LPVGNPAEPSLMIDGILWEGFGGDPCDPCTTWCDAISMRMGYYGDFVFDRVLQTDVNKEFQMGAKPTTATGNAAAPSTCTARENPAYGRHMQDAEMFTNAAYMALNIWDRFDVFCTLGATSGYLKGNSASFNLVGLFGDNENHATVSDSKLVPNMSLDQSVVELYTDTTFAWSAGARAALWECGCATLGASFQYAQSKPKVEELNVLCNAAEFTINKPKGYVGQEFPLDLKAGTDGVTGTKDASIDYHEWQASLALSYRLNMFTPYIGVKWSRASFDADTIRIAQPKSATTVFDVTTLNPTIAGAGDVKASAEGQLGDTMQIVSLQLNKMKSRKSCGIAVGTTIVDADKYAVTVETRLIDERAAHVNAQFRF
As for B3, the binding entry in test [2] and in test [1] was “binds” throughout.
